Assay results reported in patent publication US20160220710A1, “COMPOSITIONS AND METHODS FOR DELIVERING PHARMACEUTICAL AGENTS” (THE REGENTS OF THE UNIVERSITY OF MICHIGAN, priority 2015, published 2016).

Experiments:
[1] = PA microscopy of liver and spleen cryosections of CFZ-fed mice; conditions: 532 nm
[2] = PA tomography (PAT) of gelatin phantoms; conditions: excitation 532 nm; 2 mM in DMSO or 2 mM equivalent in PBS

SMILES: CC(C)/N=c1\cc2n(-c3ccc(Cl)cc3)c3ccccc3nc-2cc1Nc1ccc(Cl)cc1 [CFZ, 3-(p-chloroanilino)-10-(p-chlorophenyl)-2, 10-dihydro-2-isopropyliminophenazine]
- Contrast-to-Noise Ratio (CNR) ([1]; liver): 22.4 dB
- PA signal intensity ([1]; liver): 36.0±12.5 mV
- Contrast-to-Noise Ratio (CNR) ([1]; spleen): 24.6 dB
- PA signal intensity ([1]; spleen): 45.9±21.2 mV
- PAT signal [2]: minimally detected

SMILES: CC(C)N=c1cc2n(-c3ccc(Cl)cc3)c3ccccc3nc-2cc1Nc1ccc(Cl)cc1.Cl [CFZ-A]
- PAT signal [2]: strong PAT signal

SMILES: CC(C)N=c1cc2n(-c3ccc(Cl)cc3)c3ccccc3nc-2cc1Nc1ccc(Cl)cc1.Cl [CFZ-HCl]
- PAT signal [2]: significant PAT signals
